Test [1] has as its target T1, GST-tagged Ct288 (C. trachomatis) (UniProt O84290).
T1 sequence: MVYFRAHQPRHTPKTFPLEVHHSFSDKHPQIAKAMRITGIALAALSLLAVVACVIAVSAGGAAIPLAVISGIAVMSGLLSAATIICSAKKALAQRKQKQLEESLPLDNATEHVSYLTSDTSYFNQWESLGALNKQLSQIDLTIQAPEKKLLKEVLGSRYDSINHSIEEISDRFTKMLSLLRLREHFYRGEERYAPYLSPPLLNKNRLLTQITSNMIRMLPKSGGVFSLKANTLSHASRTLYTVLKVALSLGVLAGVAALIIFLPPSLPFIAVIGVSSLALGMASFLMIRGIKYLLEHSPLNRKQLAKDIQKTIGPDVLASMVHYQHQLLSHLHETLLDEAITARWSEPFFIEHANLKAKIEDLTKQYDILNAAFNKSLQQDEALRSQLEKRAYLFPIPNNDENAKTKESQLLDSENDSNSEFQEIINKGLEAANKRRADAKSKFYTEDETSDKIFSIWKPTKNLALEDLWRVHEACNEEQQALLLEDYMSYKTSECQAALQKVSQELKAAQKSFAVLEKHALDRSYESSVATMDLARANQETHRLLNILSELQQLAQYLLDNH
As to the kind of experiment: pull-down; untagged Slc1 co-expressed in E. coli with GST-tagged test protein; glutathione-Sepharose beads, 4 h; binding buffer 1% Triton X-100, 20 mM Tris, 150 mM NaCl, 1 mM EDTA, pH 7.4; washes up to 300 mM NaCl; immunoblot with anti-Slc1 and anti-GST. A general note: A western blot detects proteins with antibodies after separation by electrophoresis.

In test [2] the target is Slc1 (Ct043), type III secretion chaperone (Chlamydia trachomatis LGV serotype L2 strain 434/Bu (endogenous in EBs)). As to the kind of experiment: co-IP; EB lysates with anti-Slc1 antisera or pre-immune sera, captured on Protein A/G agarose; bound and unbound fractions immunoblotted.

Results are given in words; binding and its absence hold for the method and conditions named. Binding seen in cells or lysates may run through a third protein. For some assays here: Where a sequence is shown, tags or fusion partners need not be part of it.

On to “untagged Slc1, recombinant (C. trachomatis)”, for which the binding result in test [1] is “no binding”.

B1: MOMP (major outer membrane protein) (protein, UniProt P06597 23-394)
chain: LPVGNPAEPSLMIDGILWEGFGGDPCDPCTTWCDAISMRMGYYGDFVFDRVLQTDVNKEFQMGAKPTTATGNAAAPSTCTARENPAYGRHMQDAEMFTNAAYMALNIWDRFDVFCTLGATSGYLKGNSASFNLVGLFGDNENHATVSDSKLVPNMSLDQSVVELYTDTTFAWSAGARAALWECGCATLGASFQYAQSKPKVEELNVLCNAAEFTINKPKGYVGQEFPLDLKAGTDGVTGTKDASIDYHEWQASLALSYRLNMFTPYIGVKWSRASFDADTIRIAQPKSATTVFDVTTLNPTIAGAGDVKASAEGQLGDTMQIVSLQLNKMKSRKSCGIAVGTTIVDADKYAVTVETRLIDERAAHVNAQFRF
For the molecule B1, in test [2], the binding entry is “no binding”.

The record behind these values is paper PMC3930595.
